According to EP0736302A2, “Protease inhibitors, a DNA construct for the expression of a protease and a process for measuring proteases and/or protease inhibitors” (Stichting REGA V.Z.W., priority 1995, dated 1996):
For at least one compound, name, drawing or mass did not settle the structure.

By UniProt entry, the sequences of proteins in these tests, tags left out. Residues count along the entry.
UniProt P14780, 94-707: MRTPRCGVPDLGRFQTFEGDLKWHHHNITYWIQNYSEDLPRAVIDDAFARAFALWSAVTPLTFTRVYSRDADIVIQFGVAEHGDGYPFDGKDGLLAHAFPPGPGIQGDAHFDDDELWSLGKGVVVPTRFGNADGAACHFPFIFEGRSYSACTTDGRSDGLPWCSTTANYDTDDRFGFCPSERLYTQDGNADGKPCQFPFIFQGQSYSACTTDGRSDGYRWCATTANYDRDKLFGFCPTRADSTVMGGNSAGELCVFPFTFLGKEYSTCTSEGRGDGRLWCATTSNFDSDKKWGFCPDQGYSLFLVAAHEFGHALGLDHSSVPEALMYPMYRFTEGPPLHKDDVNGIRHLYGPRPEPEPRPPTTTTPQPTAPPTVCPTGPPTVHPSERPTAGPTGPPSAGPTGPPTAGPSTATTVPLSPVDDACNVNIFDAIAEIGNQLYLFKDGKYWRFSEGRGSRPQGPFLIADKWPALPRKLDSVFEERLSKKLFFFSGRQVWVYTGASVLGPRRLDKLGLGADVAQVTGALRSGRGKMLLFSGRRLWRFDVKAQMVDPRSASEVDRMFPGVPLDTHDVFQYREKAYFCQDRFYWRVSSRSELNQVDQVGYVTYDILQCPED

Target: gelatinase B from neutrophils (Homo sapiens, UniProt P14780)
Assay: gelatinase microtiter plate assay (digestion of biotinylated gelatin, inhibition factor)
Format: biochemical
Set-up: endogenous in cells; host or cells: human neutrophils stimulated with lipopolysaccharide; conditioned medium
Details: tetracycline concentration 3.33 mg/ml; crude neutrophil gelatinase B; '-' = no inhibitory activity
Description: The measurement of gelatinase activity was based on the detection of non-degraded biotinylated gelatin with a streptavidin-peroxidase conjugate. This test is based on the biotin-avidin method described by Sorbi et al. (25) but modified to a one plate assay (schematically represented in Fig. 1.). Gelatin (1mg/ml) was dissolved in 0.1 M sodium bicarbonate pH 8.3 by heating to 40°C. Biotin-N-hydroxysuccinimide ester was dissolved in dimethylsulfoxide (Me2SO) and was added to the gelatin in a 15-fold molar excess. The mixture was allowed to react overnight at 4°C and the biotinylated gelatin was then dialyzed against phosphate buffered saline (PBS). Neutrophil granulocyte (Neu) medium was collected from human neutrophils after stimulation with lipopolysaccharide (1µg/ml) overnight at 37°C in Minimal Essential Medium. Cells were removed by 10 min centrifugation at 1000 g. […]
Modified flat bottom 96-well ELISA plates were coated overnight with 0.5 µg/ml avidin in distilled water. […] After rinsing the plate, the ABTS substrate was added (0.5 mg/ml solution containing 0.1 M citric acid, 0.2 M Na2HPO4, pH 4.3, 0.07 µl/ml 30% H2O2) and the optical density was read at 405 nm after 10 min. incubation at room temperature.
Gelatin is biotinylated and bound to avidin-coated microtiter plates. […] Bound streptavidin-peroxidase activity is measured spectrophotometrically by reaction of peroxide with ABTS. […]

## CN(C)[C@@H]1C(O)=C(C(N)=O)C(=O)[C@@]2(O)C(O)=C3C(=O)c4c(O)cccc4[C@@](C)(O)[C@H]3[C@H](O)[C@@H]12 [oxytetracycline base]
  Inhibition factor (IF): precipitation
